Experimental data published in PubChem BioAssay AID493014 (National Center for Advancing Translational Sciences (NCATS), 2011).
The other results are listed elsewhere or left out. These are further read-outs of the screen, such as a control signal, another cell line or another target. No call is given for them. The list favours compounds with an active or inconclusive main result. The note in brackets gives the kind of curve behind each potency; many fits are weak.

Experiment: qHTS Assay to Find Inhibitors of Chronic Active B-Cell Receptor Signaling
Conditions: ABC-DLBCL IkBa-CBG/CBR reporter, luminescence ratio (green luciferase fused to IkBa over red control in TMD8 lymphoma cells), 4 h
Method in brief: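 Compounds up to 46 uM were incubated four hours with TMD8 cells whose green CBG68 luciferase is fused to IkappaBalpha; red CBR luminescence normalised the signal, and concentration-effect curves were fitted to fusion, red and ratio data.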

[1] = measured here: CBR red luminescence, cell number
[2] = measured here: IkBa-CBG green luminescence

Row | Structure (SMILES) | AC50 [1] | AC50 [2]
1 | O=C(N/N=C\C1CC=CCC1)c1ccc(Br)o1 (stereo not given) | 35.5 µM [falling, single point] | –
2 | COc1ccc(C(=O)N[C@H](C(=O)Nc2ccc(OC)nc2)C(C)C)cc1 | 8.2 µM [rising, partial curve, poor fit] | –
3 | CC1(C)Oc2ccc3ccc(=O)oc3c2/C(=C/NNC(N)=S)C1=O | 35.5 µM [falling, single point] | –
4 | CCc1cc(=O)[nH]c(SCC(=O)N2CCC(Cc3ccccc3)CC2)n1 | 23.1 µM [falling, partial curve] | –
5 | Cc1nc(NC(=O)c2cc3ccccc3o2)sc1C | 2.24 µM [falling, full curve, poor fit] | –
6 | CC(=O)Nc1ccc(S(=O)(=O)Oc2cccc(N3C(=O)C4CC=CCC4C3=O)c2)cc1 (stereo not given) | 14.6 µM [falling, partial curve, poor fit] | –
7 | CCOc1cc2oc(=O)c3c(c2cc1Cl)CCC3 | 6.51 µM [rising, single point] | –
8 | COc1ccc(C(=O)Nc2sc(C(=O)N(C)C)c(C)c2C#N)cc1[N+](=O)[O-] | 5.17 µM [rising, partial curve] | –
9 | Cc1ccc(S(=O)(=O)N/N=C\c2cccnc2)cc1 | 11.2 µM [falling, single point] | –
10 | C=CCS(=O)(=O)c1nc2ccccc2s1 | 3.16 µM [falling, partial curve, poor fit] | –
11 | O=C(CCS(=O)(=O)Cc1ccccc1)Nc1nnc(C(F)(F)F)s1 | 11.2 µM [falling, partial curve] | –
12 | COc1ccc(-c2ccc(SCC(=O)N3CCOCC3)nn2)cc1OC | 35.5 µM [falling, single point] | –
13 | O=c1cc(CSc2nnnn2-c2ccccc2)[nH]c2[nH]n(-c3ccccc3)c(=O)c12 | 8.2 µM [falling, partial curve] | –
14 | CC(=O)Nc1ccc(S(=O)(=O)N(C)c2ccc(OCC(=O)Nc3ccccc3C(C)=O)cc2)cc1 | 23.1 µM [falling, partial curve, poor fit] | –
15 | N#Cc1ccsc1NC(=O)c1ccccn1 | 11.2 µM [rising, partial curve, poor fit] | –
16 | Cc1cc(C)n(C(=O)c2cccc(S(=O)(=O)N3CCOCC3)c2)n1 | 0.651 µM [rising, full curve, poor fit] | –
17 | O=C(COC(=O)c1cc(-c2ccco2)nc2ccccc12)NCc1ccccc1 | 2.06 µM [falling, partial curve, poor fit] | –
18 | O=C(O)/C=C/C(=O)Nc1ccccc1C(=O)Nc1ccccc1 | 29.1 µM [falling, single point] | –
19 | COc1ccc(Cl)cc1C(=O)O/N=C(\N)c1ccncc1 | 0.126 µM [rising, full curve, poor fit] | –
20 | CC(C)(C)c1ccc(CN2N=Nc3ccccc3S2(=O)=O)cc1 | 25.1 µM [rising, single point] | 15.8 µM [falling, single point]
21 | CCN1CCc2c(sc(NC(=O)c3ccc(S(=O)(=O)N4CCCC(C)C4)cc3)c2C(=O)OC)C1 (stereo not given) | 0.562 µM [falling, partial curve, poor fit] | –

Excerpt, nos. 6 to 10
Row | Structure (SMILES) | AC50 [1] | AC50 [2]
6 | CC(=O)Nc1ccc(S(=O)(=O)Oc2cccc(N3C(=O)C4CC=CCC4C3=O)c2)cc1 (stereo not given) | 14.6 µM [falling, partial curve, poor fit] | –
7 | CCOc1cc2oc(=O)c3c(c2cc1Cl)CCC3 | 6.51 µM [rising, single point] | –
8 | COc1ccc(C(=O)Nc2sc(C(=O)N(C)C)c(C)c2C#N)cc1[N+](=O)[O-] | 5.17 µM [rising, partial curve] | –
9 | Cc1ccc(S(=O)(=O)N/N=C\c2cccnc2)cc1 | 11.2 µM [falling, single point] | –
10 | C=CCS(=O)(=O)c1nc2ccccc2s1 | 3.16 µM [falling, partial curve, poor fit] | –

Following part:

Row | Structure (SMILES) | AC50 [1] | AC50 [2]
22 | CCCc1[nH]nc2c1C(c1ccncc1)C(C#N)=C(N)O2 (stereo not given) | 35.5 µM [falling, partial curve, poor fit] | –
23 | CC(=O)Nc1cccc(NC(=O)CCc2ccccc2)c1 | 3.26 µM [falling, full curve] | –
24 | CCS(=O)(=O)c1cc([N+](=O)[O-])c(Sc2ccccc2N)s1 | 1.78 µM [rising, partial curve, poor fit] | –
25 | CN(C)C(=O)c1cn(-c2ccccc2)nc1-c1cccc([N+](=O)[O-])c1 | 5.01 µM [rising, full curve, poor fit] | –
26 | COC(=O)C1=CN(Cc2ccc(OC)c(OC)c2)C=C(C(=O)OC)C1c1ccc(F)cc1 | 2.24 µM [rising, partial curve, poor fit] | –
27 | COc1ccc(/C=C2\SC(=S)N(CCC(=O)Nc3ccc(C(=O)O)cc3)C2=O)cc1 | 6.31 µM [falling, partial curve, poor fit] | –
28 | COC(=O)c1cccc2c1-c1ccccc1/C2=N/O | 1.3 µM [falling, full curve, poor fit] | –
29 | CCOC(=O)c1c(S(=O)(=O)N2CCC(C(=O)NCc3cccc(OC)c3)CC2)c(C)n(C)c1C | 3.16 µM [rising, single point] | –
30 | O=C(N/N=C/c1ccc2c(c1)OCO2)c1ccc2ccccc2n1 | 11.2 µM [falling, single point] | –
31 | COc1ccc(NC(=O)COc2ccc(/C=N/NC(=O)c3cccnc3)cc2OC)cc1 | 20.6 µM [falling, single point] | –
32 | CC[n+]1c(/C=C/N(C)c2ccccc2)n(-c2ccccc2)c2ccc(-c3nc4ccccc4s3)cc21 | 7.94 µM [falling, partial curve] | 35.5 µM [rising, partial curve, poor fit]
33 | Cc1ccc2c(c1)C1(C)C(C(C)(C)N2C=O)C1(Cl)Cl (stereo not given) | 15.8 µM [rising, partial curve, poor fit] | –
34 | Cc1cc(C(=O)N/N=C/c2ccc3c(c2)OCO3)c(C)o1 | 4.47 µM [falling, partial curve] | –
35 | [O-]/[N+](=C\C=C\c1ccccc1)c1ccccc1 | 10 µM [falling, partial curve] | –
36 | COc1ccccc1NC(=O)COc1coc(CN2CCN(c3ccccc3)CC2)cc1=O | 0.82 µM [falling, partial curve, poor fit] | –
37 | COc1ccc2cc3cc(C(=O)Nc4ccc5c(c4)OCCO5)oc3nc2c1 | 15.8 µM [rising, partial curve, poor fit] | –
38 | CCN(CC)S(=O)(=O)c1ccc(N=Nc2c(C)[nH]n(C(N)=S)c2=O)cc1 | 29.1 µM [rising, single point] | –
39 | Cc1cccc(NC(=S)N(CCN2CCOCC2)Cc2cc3cc4c(cc3[nH]c2=O)OCCO4)c1 | 35.5 µM [falling, single point] | –
40 | COc1ccc(C=NCC2OCCc3ccccc32)cc1OC (stereo not given) | 0.82 µM [rising, full curve, poor fit] | –
41 | CCOC(=O)N1CCN(Cc2nc3c(c(=O)n(C)c(=O)n3C)n2Cc2ccccc2)CC1 | 0.411 µM [rising, full curve, poor fit] | –
42 | CCOc1ccc(NC(=O)c2cc(SC)ccc2Cl)cc1 | 2.91 µM [falling, partial curve] | –

Row | Structure (SMILES) | AC50 [1] | AC50 [2]
43 | Cn1cc(S(=O)(=O)N2CCc3ccccc32)cc1C(=O)Nc1ccc(Cl)cc1 | 1.12 µM [falling, full curve, poor fit] | –
44 | CCCCN(CCCC)CC(O)CN1C(=O)NC(C)(C)C1=O (stereo not given) | 1.46 µM [rising, full curve] | –
45 | COc1cccc(-c2c(C(=O)N/N=C/c3ccc(C)o3)nnn2-c2nonc2N)c1 | 11.2 µM [falling, single point] | –
46 | COc1ccc(-n2c(=O)c(CCC(=O)NCCc3ccccc3F)nc3ccccc32)cc1 | 16.4 µM [rising, single point] | –
47 | Cc1cc(Cl)c(OCCCn2ccnc2)c(Br)c1 | 11.6 µM [rising, partial curve, poor fit] | 29.1 µM [falling, single point]
48 | C=CCC[C@@H](Cc1ccc(F)cc1)C(=O)OC[C@@H](C)NC(=O)[C@H](CC=C)CC(=O)N(CCO)Cc1ccccc1 | 14.6 µM [falling, partial curve] | –
49 | CCCC(=O)Nc1sc(Cc2ccccc2)c(C)c1C(N)=O | 22.4 µM [falling, partial curve, poor fit] | 1.12 µM [rising, full curve]
50 | COc1cc(SC#N)ccc1N=Cc1c(C)[nH]n(-c2ccc(C)c(C)c2)c1=O | 16.4 µM [rising, partial curve, poor fit] | –
51 | N/N=C(/Cc1nc2ccccc2[nH]1)c1ccc([N+](=O)[O-])cc1 | 11.2 µM [falling, partial curve, poor fit] | –
52 | Cc1onc(-c2ccccc2)c1-c1n[nH]c(=S)n1-c1ccc(C(=O)O)cc1 | 20.6 µM [falling, single point] | –
53 | Cc1ccc(C2=NN(C(=O)CSc3nc4ncc(Cl)cc4[nH]3)C(c3ccco3)C2)cc1 (stereo not given) | 20 µM [falling, partial curve, poor fit] | –
54 | COc1cc2c(cc1OC)C(c1cc3ccccc3oc1=O)=NC(C)(C)C2 | 12.6 µM [falling, single point] | –
55 | COc1ccc(NC(=O)CSc2nnc(Cc3ccccc3)c(=O)n2N)cc1OC | 5.17 µM [falling, full curve, poor fit] | –
56 | O=C(NNC(=O)C1CC=CCC1C(=O)O)c1ccc(Cl)cc1 (stereo not given) | 10 µM [falling, partial curve, poor fit] | –
57 | O=[N+]([O-])c1cccc(CNCc2ccccc2)c1 | 1.78 µM [rising, single point] | –
58 | O=C1c2ccccc2C(Nc2ccc3nc(-c4cccnc4)[nH]c3c2)N1Cc1ccco1 (stereo not given) | 0.103 µM [falling, full curve, poor fit] | –
59 | O=C(O)c1ccccc1-c1nc2ccccc2[nH]1 | 20 µM [falling, partial curve, poor fit] | –
60 | O=C(Nc1cc(Cl)cc(Cl)c1)c1cc(S(=O)(=O)NC2CCCC2)ccc1F | 14.1 µM [falling, partial curve, poor fit] | –
61 | COc1ccc(OC)c(S(=O)(=O)Nc2ccc(CC(=O)O)cc2)c1 | 29.1 µM [rising, partial curve, poor fit] | –
